We go through two molecules from article PMC7866118.

These are yes or no findings as the source states them, for the method shown.

Assay [1] addresses recombinant human hemopexin (human) (UniProt P02790). Description: SEC; SEC-HPLC, BioSep-SEC-s3000 column, mobile phase 1 mM potassium phosphate pH 7.4; heme complexes at L/P 0.5 and 2.0 compared with the apo-proteins and PEG-HPX as high molecular weight reference; detection at 280 and 413 nm; both purified. For orientation: SEC sorts molecules by how far they enter the pores of the column.

Assay [2] concerns the target human plasma hemopexin (human) (UniProt P02790). The description is as above.

B1: recombinant human hemopexin (protein, UniProt P02790 24-462)
chain: TPLPPTSAHGNVAEGETKPDPDVTERCSDGWSFDATTLDDNGTMLFFKGEFVWKSHKWDRELISERWKNFPSPVDAAFRQGHNSVFLIKGDKVWVYPPEKKEKGYPKLLQDEFPGIPSPLDAAVECHRGECQAEGVLFFQGDREWFWDLATGTMKERSWPAVGNCSSALRWLGRYYCFQGNQFLRFDPVRGEVPPRYPRDVRDYFMPCPGRGHGHRNGTGHGNSTHHGPEYMRCSPHLVLSALTSDNHGATYAFSGTHYWRLDTSRDGWHSWPIAHQWPQGPSAVDAAFSWEEKLYLVQGTQVYVFLTKGGYTLVSGYPKRLEKEVGTPHGIILDSVDAAFICPGSSRLHIMAGRRLWWLDLKSGAQATWTELPWPHEKVDGALCMEKSLGPNSCSANGPGLYLIHGPNLYCYSDVEKLNAAKALPQPQNVTSLLGCTH
Regarding B1, the binding result in assay [1] is reported as “no binding”.

B2: human plasma hemopexin (protein, UniProt P02790 24-462)
chain: B1 chain
On to B2, for which the binding result in assay [2] was “no binding”.
